Consider 27 molecules from the supplement of paper PMC11348887.

This is one part of the list. Most entries show no effect beyond the scatter of the controls. Where a SMILES comes first, the peptide text is derived from it. Bridges are numbered along the chain shown (N, C = ends). [ ]: non-standard residue; d: D form. The star is where a group is joined. Heptanoyl(6-Me) = CC(C)CCCCC(=O)*; Dab = NCC[C@H](N)C(=O)O

Common to all, as to conditions: 5 µM; treatment: days 7-14 after plating, readout day 21
For assay [1], the system named is hPSC-derived cortical neurons (WA09). Briefly: nucleus area z-score vs screen plate; higher = larger nuclei (more mature).
Assay [2] shares this test system. The assay is described as follows: total neurite length per nucleus (MAP2) z-score; higher = more neurite growth.
The test system is the same in assay [3]. Briefly: nucleus roundness z-score vs screen plate; higher = rounder nuclei (more mature).
Assay [4] has the same test system. The assay is described as follows: KCl-induced FOS+/EGR-1+ double-positive nuclei fraction z-score (KCl minus unstimulated); higher = stronger activity-induced IEG response.

The molecule `CC[C@@H](C)Nc1cc(C(=O)N[C@H]2C[C@H]3CC[C@@H](C2)N3c2ccc(C(=O)C3CC3)cn2)c(C)cc1C(N)=O` gave a nucleus area z-score in assay [1] of 2.22. Moreover, the “total neurite length per nucleus (z-score)” value in assay [2] amounted to 1.52. The same molecule displayed a nucleus roundness z-score in assay [3] of -2.89. Besides, the “KCl-induced FOS+/EGR-1+ double-positive nuclei fraction z-score” value in assay [4] came out at 7.67.

With `C1N2CN3CN1CN(C2)C3` [Methenamine], the nucleus area z-score in assay [1] stood at 0.394. Also, the “total neurite length per nucleus (z-score)” value in assay [2] is 1.03. The molecule also yielded a nucleus roundness z-score in assay [3] of 0.992. Also, in assay [4], the “KCl-induced FOS+/EGR-1+ double-positive nuclei fraction z-score” value came out at 1.77.

For `CC(=O)OCC(=O)[C@@]12OC(C)(C)O[C@@H]1C[C@H]1[C@@H]3C[C@H](F)C4=CC(=O)C=C[C@]4(C)[C@@]3(F)[C@@H](O)C[C@@]12C` [Fluocinonide], the nucleus area z-score in assay [1] is -0.117. The “total neurite length per nucleus (z-score)” value in assay [2] turned out to be 1.2. The molecule further displayed a nucleus roundness z-score in assay [3] of -0.0109. In assay [4], the “KCl-induced FOS+/EGR-1+ double-positive nuclei fraction z-score” value amounted to 0.993.

The molecule `C1=N/C2=N/c3ccc(OCCN4CCCC4)c(c3)COC/C=C/COCc3cccc(c3)C(=C1)N2` [Pacritinib (SB1518)] came in with a nucleus area z-score in assay [1] of -12. The “total neurite length per nucleus (z-score)” value in assay [2] is -4.02. In addition, the nucleus roundness z-score in assay [3] was -0.138. In addition, in assay [4], the “KCl-induced FOS+/EGR-1+ double-positive nuclei fraction z-score” value was -2.75.

In turn, `CN(C)Cc1ccc(-c2nc3cccc4c3n2CCNC4=O)cc1` came in with a nucleus area z-score in assay [1] of 0.00852. In assay [2], the “total neurite length per nucleus (z-score)” value amounted to 0.717. The molecule further yielded a nucleus roundness z-score in assay [3] of 0.332. Besides, in assay [4], the “KCl-induced FOS+/EGR-1+ double-positive nuclei fraction z-score” value is 1.8.

`O[C@@H]1CO[C@H]2[C@@H]1OC[C@@H]2O` [Isosorbide] came in with a nucleus area z-score in assay [1] of -0.281. Further, in assay [2], the “total neurite length per nucleus (z-score)” value was 0.103. Moreover, the nucleus roundness z-score in assay [3] was 0.617. Moreover, the “KCl-induced FOS+/EGR-1+ double-positive nuclei fraction z-score” value in assay [4] is -0.296.

For the molecule `COc1ccc2c(c1)c(CC(=O)O)c(C)n2C(=O)c1ccc(Cl)cc1` [Indomethacin], the nucleus area z-score in assay [1] stood at 0.296. Moreover, the “total neurite length per nucleus (z-score)” value in assay [2] was determined as 1.22. In assay [3], the nucleus roundness z-score worked out at 1.35. For the same molecule, in assay [4], the “KCl-induced FOS+/EGR-1+ double-positive nuclei fraction z-score” value stood at 1.13.

`Cn1cc(/C=C2\C(=O)Nc3cccnc32)c2ccccc21`: in assay [1], the nucleus area z-score is -0.00153. In assay [2], the “total neurite length per nucleus (z-score)” value amounted to 0.142. In assay [3], this molecule returned a nucleus roundness z-score of -0.414. Moreover, the “KCl-induced FOS+/EGR-1+ double-positive nuclei fraction z-score” value in assay [4] is 0.834.

As to `COC1(c2sc3c(N4CCOCC4)nc(-c4cnc(N)nc4)nc3c2C)COC1`, the nucleus area z-score in assay [1] is -1.61. For the same molecule, in assay [2], the “total neurite length per nucleus (z-score)” value was -0.291. In assay [3], this molecule gave a nucleus roundness z-score of -1.77. Besides, in assay [4], the “KCl-induced FOS+/EGR-1+ double-positive nuclei fraction z-score” value was -1.85.

As to `CCN(CC)C(=S)SSC(=S)N(CC)CC` [Disulfiram], the nucleus area z-score in assay [1] was found to be 0.441. In addition, in assay [2], the “total neurite length per nucleus (z-score)” value was -0.143. Moreover, the nucleus roundness z-score in assay [3] is -1.23. In addition, the “KCl-induced FOS+/EGR-1+ double-positive nuclei fraction z-score” value in assay [4] was determined as 0.397.

The molecule `CCn1cc(C(=O)O)c(=O)c2c(N)c(F)c(NC3CCCCC3)cc21` came in with a nucleus area z-score in assay [1] of -0.999. Further, in assay [2], the “total neurite length per nucleus (z-score)” value was -2.38. The same molecule returned a nucleus roundness z-score in assay [3] of -1.57. The “KCl-induced FOS+/EGR-1+ double-positive nuclei fraction z-score” value in assay [4] is -0.543.

As to `CC(C)(C)c1[nH]cnc1/C=c1\[nH]c(=O)/c(=C/c2ccccc2)[nH]c1=O` [Plinabulin (NPI-2358)], the nucleus area z-score in assay [1] was -5.71. Besides, the “total neurite length per nucleus (z-score)” value in assay [2] is -3.11. In assay [3], this molecule displayed a nucleus roundness z-score of -0.858. The “KCl-induced FOS+/EGR-1+ double-positive nuclei fraction z-score” value in assay [4] is 0.636.

For `CN1CCN(C(=O)c2cc3cc(Cl)ccc3[nH]2)CC1`, in assay [1], the nucleus area z-score is 0.0492. Also, the “total neurite length per nucleus (z-score)” value in assay [2] was 0.768. The nucleus roundness z-score in assay [3] worked out at 0.979. The “KCl-induced FOS+/EGR-1+ double-positive nuclei fraction z-score” value in assay [4] is 2.02.

`CC(C)CCCCC(=O)N[C@@H](CCN)C(=O)N[C@H](C(=O)N[C@@H](CCN)C(=O)N[C@H]1CCNC(=O)[C@H]([C@@H](C)O)NC(=O)[C@H](CCN)NC(=O)[C@H](CCN)NC(=O)[C@H](CC(C)C)NC(=O)[C@@H](Cc2ccccc2)NC(=O)[C@H](CCN)NC1=O)[C@@H](C)O` [Polymyxin B sulphate] ({Heptanoyl(6-Me)}-[Dab]T[Dab][Dab][Dab][dF]L[Dab][Dab]T; lactam 4-C): in assay [1], the nucleus area z-score came to 0.626. For the same molecule, in assay [2], the “total neurite length per nucleus (z-score)” value was -0.133. This molecule also displayed a nucleus roundness z-score in assay [3] of 0.0573. Also, in assay [4], the “KCl-induced FOS+/EGR-1+ double-positive nuclei fraction z-score” value was determined as 1.8.

The molecule `CCCCCCCc1ccc(CCc2cccc(O)c2C(=O)O)cc1` gave a nucleus area z-score in assay [1] of 0.535. Also, the “total neurite length per nucleus (z-score)” value in assay [2] was 0.797. Further, the nucleus roundness z-score in assay [3] was found to be 0.852. Moreover, the “KCl-induced FOS+/EGR-1+ double-positive nuclei fraction z-score” value in assay [4] turned out to be 0.148.

For `NC(=O)CC[C@@H](N)C(=O)O` [D-glutamine], the nucleus area z-score in assay [1] is 1.18. Moreover, the “total neurite length per nucleus (z-score)” value in assay [2] turned out to be 0.266. Further, in assay [3], the nucleus roundness z-score was 0.35. For the same molecule, in assay [4], the “KCl-induced FOS+/EGR-1+ double-positive nuclei fraction z-score” value is -0.121.

Molecule `O=C(O)CCc1ccc(NCc2cccc(Oc3ccccc3)c2)cc1` registered a nucleus area z-score in assay [1] of 0.502. Moreover, the “total neurite length per nucleus (z-score)” value in assay [2] came to 0.58. This molecule also showed a nucleus roundness z-score in assay [3] of 0.394. For the same molecule, the “KCl-induced FOS+/EGR-1+ double-positive nuclei fraction z-score” value in assay [4] worked out at 1.06.

Take `Cc1ccc(Sc2ccccc2N2CCNCC2)c(C)c1`: in assay [1], the nucleus area z-score was -2.12. In assay [2], the “total neurite length per nucleus (z-score)” value is -0.779. In assay [3], this molecule had a nucleus roundness z-score of -1.08. Further, the “KCl-induced FOS+/EGR-1+ double-positive nuclei fraction z-score” value in assay [4] came to 1.05.

`C=CC(=O)N1CCC(Oc2cc3c(Nc4ccc(Cl)c(Cl)c4F)ncnc3cc2OC)CC1` [Poziotinib (HM781-36B)] came in with a nucleus area z-score in assay [1] of 0.703. Also, the “total neurite length per nucleus (z-score)” value in assay [2] was -0.319. In assay [3], this molecule showed a nucleus roundness z-score of -0.705. Also, in assay [4], the “KCl-induced FOS+/EGR-1+ double-positive nuclei fraction z-score” value was -0.775.

`O=C(C[S+]([O-])Cc1ccco1)NC/C=C\COc1cc(CN2CCCCC2)ccn1` (stereo not drawn) [Lafutidine] had a nucleus area z-score in assay [1] of 1.11. In assay [2], the “total neurite length per nucleus (z-score)” value is 0.381. The nucleus roundness z-score in assay [3] was -0.296. Further, the “KCl-induced FOS+/EGR-1+ double-positive nuclei fraction z-score” value in assay [4] stood at 0.539.

Consider `C1CNCCN1` [Piperazine], for which the nucleus area z-score in assay [1] was determined as 0.763. In addition, the “total neurite length per nucleus (z-score)” value in assay [2] was -1.08. Besides, in assay [3], the nucleus roundness z-score was -0.723. For the same molecule, the “KCl-induced FOS+/EGR-1+ double-positive nuclei fraction z-score” value in assay [4] was determined as 0.424.

Consider `O=C1c2c(O)ccc(O)c2C(=O)c2c(NCCNCCO)ccc(NCCNCCO)c21` [Mitoxantrone], for which, in assay [1], the nucleus area z-score was -2.18. Also, the “total neurite length per nucleus (z-score)” value in assay [2] is -4.2. This molecule also displayed a nucleus roundness z-score in assay [3] of 2.5. Also, in assay [4], the “KCl-induced FOS+/EGR-1+ double-positive nuclei fraction z-score” value was -0.377.

As for `O=c1[nH]c(=O)n([C@H]2C[C@H](O)[C@@H](CO)O2)cc1C(F)(F)F` [Trifluridine], the nucleus area z-score in assay [1] amounted to 0.0359. For the same molecule, the “total neurite length per nucleus (z-score)” value in assay [2] turned out to be 0.485. The nucleus roundness z-score in assay [3] amounted to 0.23. In addition, the “KCl-induced FOS+/EGR-1+ double-positive nuclei fraction z-score” value in assay [4] is -0.712.

As to `COC(=O)c1ccc([C@H]2c3[nH]c4ccccc4c3C[C@H](C(=O)OC)N2C(=O)CCl)cc1`, the nucleus area z-score in assay [1] was -5.42. Moreover, in assay [2], the “total neurite length per nucleus (z-score)” value was -3.07. This molecule yielded a nucleus roundness z-score in assay [3] of -2.96. Moreover, in assay [4], the “KCl-induced FOS+/EGR-1+ double-positive nuclei fraction z-score” value is -0.0954.

On to `CN(C)c1cccc(-c2c3c(=O)n(-c4ccccc4Cl)[nH]c3cc(=O)n2C)c1`, for which, in assay [1], the nucleus area z-score was -0.0332. Also, in assay [2], the “total neurite length per nucleus (z-score)” value amounted to 0.712. Further, the nucleus roundness z-score in assay [3] was 0.31. Further, the “KCl-induced FOS+/EGR-1+ double-positive nuclei fraction z-score” value in assay [4] is -0.104.

With `N#C/C(=C1/SC[C@@H](c2ccc(Cl)cc2Cl)S1)n1ccnc1` [Luliconazole], the nucleus area z-score in assay [1] is -0.0809. In addition, in assay [2], the “total neurite length per nucleus (z-score)” value came to 0.0875. In assay [3], this molecule came in with a nucleus roundness z-score of 0.728. In addition, the “KCl-induced FOS+/EGR-1+ double-positive nuclei fraction z-score” value in assay [4] was -0.379.

`O=S(=O)(c1ccccc1)c1cnc2c(N3CCNCC3)cccc2c1` displayed a nucleus area z-score in assay [1] of -0.337. Also, the “total neurite length per nucleus (z-score)” value in assay [2] turned out to be 1.57. In addition, the nucleus roundness z-score in assay [3] is 1.74. Also, in assay [4], the “KCl-induced FOS+/EGR-1+ double-positive nuclei fraction z-score” value was 0.306.
